This note sets out measurements from the supplement of paper PMC12542422.

The subject of assay [1] is HeLa K (ENP1 immunofluorescence, +LMB). Briefly: fraction of cells with nucleolar or nucleolar/nucleoplasmic ENP1 signal (MainHitrate); higher = more cells with nucleolar/nuclear readout signal (for ENP1 -LMB: less RNAPI inhibition; for +LMB ENP1 and RP reporters: stronger nuclear/nucleolar retention, i.e. ribosome biogenesis defect). The note with it: concentration: 1 µM; treatment time: 6 h; ENP1 +LMB; leptomycin B: 20 nM, last 1.5 h.

Assay [2] relates to HeLa K (ENP1 immunofluorescence, no LMB). The assay is described as above. The conditions noted are these: concentration: 1 µM; treatment time: 6 h; ENP1 -LMB; leptomycin B: none.
Another assay has as its system HeLa RPS2-YFP reporter. As to the kind of experiment: fraction of reporter-positive cells with nuclear (nucleolar or nucleolar/nucleoplasmic) RPS2-YFP (MainHitrate); higher = more cells with nucleolar/nuclear readout signal (for ENP1 -LMB: less RNAPI inhibition; for +LMB ENP1 and RP reporters: stronger nuclear/nucleolar retention, i.e. ribosome biogenesis defect). The conditions noted are these: concentration: 1 µM; treatment time: 6 h.

The subject of a further assay is HeLa RPL29-GFP reporter. Briefly: fraction of reporter-positive cells with nuclear (nucleolar or nucleolar/nucleoplasmic) RPL29-GFP (MainHitrate); higher = more cells with nucleolar/nuclear readout signal (for ENP1 -LMB: less RNAPI inhibition; for +LMB ENP1 and RP reporters: stronger nuclear/nucleolar retention, i.e. ribosome biogenesis defect). The note with it: concentration: 1 µM; treatment time: 6 h.

Each structure is given as a SMILES string. Where a name gives a salt, the structure may show the parent alone. ± gives the standard deviation of the averaged measurements. Some of the results follow. Values are raw readings; no control value is given beside them.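 HeLa cells imaged for ribosome-assembly readouts (ENP1 staining with or without export block, or inducible tagged ribosomal protein reporters); machine learning classified each cell's signal location against solvent (DMSO) controls. Hits exceeded the DMSO false-positive mean by five standard deviations, then were visually confirmed; three biological replicates.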

`COC(=O)C1=CCCN(C)C1` [Arecoline]: the results for the fraction in assay [1] and in assay [2] were 0.11 ± 0.15 and 0.972 ± 0.049, respectively. The “fraction of reporter-positive cells with nuclear” value (“fraction … with nuclear” for short) in the assay with HeLa RPS2-YFP reporter came out at 0.13 ± 0.1; with HeLa RPL29-GFP reporter, 0.213 ± 0.051.

Regarding `CC[C@@]1(O)C(=O)OCc2c1cc1n(c2=O)Cc2cc3ccccc3nc2-1` [Camptothecin], the values for the fraction in assay [1] and in assay [2] were 0.0648 ± 0.07 and 0.946 ± 0.093, respectively. In addition, the “fraction … with nuclear” value was determined as 0.0611 ± 0.024 in the assay on HeLa RPS2-YFP reporter and 0.207 ± 0.032 in the assay with HeLa RPL29-GFP reporter.

On to `C[N+]1(C)CCCC(OC(=O)C(O)(c2ccccc2)c2ccccc2)C1` (centres undefined) [Mepenzolate Bromide], for which the fraction in assay [1] is 0.107 ± 0.12; in assay [2], 0.9981 ± 0.0032. The “fraction … with nuclear” value in the assay on HeLa RPS2-YFP reporter came out at 0.227 ± 0.2; with HeLa RPL29-GFP reporter, 0.309 ± 0.3.

Turning to `CN1C(=O)COc2c(C(=O)NC3CN4CCC3CC4)cc(Cl)cc21` (centres undefined), the fraction was found to be 0.0891 ± 0.11 in assay [1] and 0.992 ± 0.014 in assay [2]. For the same molecule, the “fraction … with nuclear” value came to 0.11 ± 0.068 in the assay on HeLa RPS2-YFP reporter and 0.211 ± 0.08 in the assay on HeLa RPL29-GFP reporter.

Consider `Cc1cccc(C(C)c2c[nH]cn2)c1C` (centres undefined) [Medetomidine HCl], for which the values for the fraction in assay [1] and in assay [2] were 0.122 ± 0.19 and 0.986 ± 0.024, respectively. Further, the “fraction … with nuclear” value in the assay with HeLa RPS2-YFP reporter stood at 0.11 ± 0.089; in the assay on HeLa RPL29-GFP reporter it was 0.215 ± 0.087.

As to `NCC(O)c1ccc(O)cc1` (racemic) [(+,-)-Octopamine HCl], the fraction in assay [1] was 0.0927 ± 0.11; in assay [2], 0.986 ± 0.025. In addition, the “fraction … with nuclear” value turned out to be 0.136 ± 0.076 in the assay with HeLa RPS2-YFP reporter and 0.213 ± 0.075 in the assay on HeLa RPL29-GFP reporter.

On to `Nc1nc(N)nc(NC2CC2)n1` [Cyromazine], for which the fraction worked out at 0.0823 ± 0.11 in assay [1] and 0.981 ± 0.034 in assay [2]. The “fraction … with nuclear” value with HeLa RPS2-YFP reporter amounted to 0.129 ± 0.11; with HeLa RPL29-GFP reporter, 0.213 ± 0.081.

On to `CN1[C@@H]2CC[C@H]1C[C@@H](OC(=O)C(CO)c1ccccc1)C2` (some centres undefined) [Atropine], for which the fraction was 0.112 ± 0.15 in assay [1] and 0.989 ± 0.02 in assay [2]. Besides, the “fraction … with nuclear” value with HeLa RPS2-YFP reporter came out at 0.108 ± 0.084; in the assay with HeLa RPL29-GFP reporter, 0.237 ± 0.088.

For the molecule `C=CCN1CC[C@]23c4c5ccc(O)c4O[C@H]2C(=O)CC[C@@]3(O)[C@H]1C5` [Naloxone HCl], the fraction in assay [1] worked out at 0.0594 ± 0.089; in assay [2] it was 0.984 ± 0.028. In addition, the “fraction … with nuclear” value in the assay with HeLa RPS2-YFP reporter is 0.12 ± 0.081; in the assay with HeLa RPL29-GFP reporter, 0.226 ± 0.068.

Consider `CC[C@@H](C(N)=O)N1CCCC1=O` [Levetiracetam], for which the fraction amounted to 0.0858 ± 0.06 in assay [1] and 0.998 ± 0.0035 in assay [2]. For the same molecule, the “fraction … with nuclear” value in the assay on HeLa RPS2-YFP reporter came out at 0.122 ± 0.07; in the assay on HeLa RPL29-GFP reporter, 0.204 ± 0.063.

`CC(C)c1c(CN(C)C(C)Cc2ccccc2)n(C)n(-c2ccccc2)c1=O` (centres undefined) [Famprofazone]: the fraction was 0.112 ± 0.14 in assay [1] and 0.9979 ± 0.0037 in assay [2]. In addition, the “fraction … with nuclear” value with HeLa RPS2-YFP reporter came to 0.175 ± 0.14; with HeLa RPL29-GFP reporter it was 0.323 ± 0.28.
